± gives the standard deviation of the averaged measurements. Only a part is listed here, and it is no random draw.
Compound: Nc1ncnc2c1ncn2[C@@H]1O[C@H](COP(=O)(O)OP(=O)(O)OP(=O)(O)O)[C@@H](O)[C@H]1O [adenosine triphosphate]
Test: NP40-soluble protein abundance relative to vehicle (solubility fold change) (ratio); higher = more soluble protein in presence of ATP
Outline: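 In three independent experiments, Jurkat crude lysate made by Dounce homogenisation was treated for 10 min at room temperature and then 3 min at 37 °C with eight concentrations ranging from 0.1 to 10 mM. It was then solubilised with 0.8% NP40 plus benzonase for 60 min at 4 °C and ultracentrifuged. The supernatant was TMT-labelled for LC-MS/MS, and each value is the fold change against the detergent-processed vehicle for the same replicate, using vsn-normalised intensities.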

Chains of the proteins cited; added tags and fusions are not shown. Lines headed by an entry give the natural chain unless they say otherwise; changes in a name come on top.
UniProt Q8N9N7: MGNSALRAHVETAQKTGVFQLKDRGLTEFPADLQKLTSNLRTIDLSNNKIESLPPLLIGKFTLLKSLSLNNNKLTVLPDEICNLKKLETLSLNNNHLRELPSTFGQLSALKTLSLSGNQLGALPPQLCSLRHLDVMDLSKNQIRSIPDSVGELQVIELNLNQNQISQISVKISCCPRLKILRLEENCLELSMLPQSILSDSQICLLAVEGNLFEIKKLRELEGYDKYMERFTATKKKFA
UniProt Q8N129: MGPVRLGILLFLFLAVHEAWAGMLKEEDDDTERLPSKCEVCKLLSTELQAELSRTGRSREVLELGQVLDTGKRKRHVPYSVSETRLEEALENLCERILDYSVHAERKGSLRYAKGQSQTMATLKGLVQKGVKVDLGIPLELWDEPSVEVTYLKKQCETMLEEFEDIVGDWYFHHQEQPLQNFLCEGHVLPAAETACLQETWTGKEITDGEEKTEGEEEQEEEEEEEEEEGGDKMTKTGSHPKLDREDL
UniProt Q8TB72: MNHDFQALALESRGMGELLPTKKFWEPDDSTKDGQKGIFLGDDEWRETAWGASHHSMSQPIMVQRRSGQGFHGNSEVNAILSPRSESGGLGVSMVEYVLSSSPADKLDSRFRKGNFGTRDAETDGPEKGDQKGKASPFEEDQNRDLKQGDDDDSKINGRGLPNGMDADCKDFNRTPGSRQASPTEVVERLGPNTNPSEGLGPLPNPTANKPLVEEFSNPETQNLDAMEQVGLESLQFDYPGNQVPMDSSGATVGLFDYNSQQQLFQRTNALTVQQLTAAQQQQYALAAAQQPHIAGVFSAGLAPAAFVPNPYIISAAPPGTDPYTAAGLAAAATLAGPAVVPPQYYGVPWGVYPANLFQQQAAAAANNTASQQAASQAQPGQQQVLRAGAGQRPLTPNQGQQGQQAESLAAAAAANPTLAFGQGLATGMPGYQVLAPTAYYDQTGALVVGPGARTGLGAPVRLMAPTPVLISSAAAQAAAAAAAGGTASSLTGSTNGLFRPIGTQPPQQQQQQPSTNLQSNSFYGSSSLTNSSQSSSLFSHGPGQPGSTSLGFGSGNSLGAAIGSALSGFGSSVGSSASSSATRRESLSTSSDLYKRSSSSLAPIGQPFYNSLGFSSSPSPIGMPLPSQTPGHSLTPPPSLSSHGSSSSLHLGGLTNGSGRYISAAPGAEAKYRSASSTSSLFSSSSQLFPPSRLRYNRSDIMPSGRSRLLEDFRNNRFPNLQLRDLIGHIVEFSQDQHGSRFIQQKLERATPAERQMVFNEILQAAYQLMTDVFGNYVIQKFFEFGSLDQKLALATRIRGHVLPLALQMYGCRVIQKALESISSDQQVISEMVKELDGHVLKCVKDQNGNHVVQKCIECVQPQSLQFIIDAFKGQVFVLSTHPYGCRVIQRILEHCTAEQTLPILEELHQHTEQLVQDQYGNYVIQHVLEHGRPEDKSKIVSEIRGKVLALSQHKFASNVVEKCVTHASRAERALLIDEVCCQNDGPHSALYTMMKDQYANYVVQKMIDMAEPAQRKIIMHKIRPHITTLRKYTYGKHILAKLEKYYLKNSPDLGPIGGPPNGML
UniProt Q8NEB9, whole entry: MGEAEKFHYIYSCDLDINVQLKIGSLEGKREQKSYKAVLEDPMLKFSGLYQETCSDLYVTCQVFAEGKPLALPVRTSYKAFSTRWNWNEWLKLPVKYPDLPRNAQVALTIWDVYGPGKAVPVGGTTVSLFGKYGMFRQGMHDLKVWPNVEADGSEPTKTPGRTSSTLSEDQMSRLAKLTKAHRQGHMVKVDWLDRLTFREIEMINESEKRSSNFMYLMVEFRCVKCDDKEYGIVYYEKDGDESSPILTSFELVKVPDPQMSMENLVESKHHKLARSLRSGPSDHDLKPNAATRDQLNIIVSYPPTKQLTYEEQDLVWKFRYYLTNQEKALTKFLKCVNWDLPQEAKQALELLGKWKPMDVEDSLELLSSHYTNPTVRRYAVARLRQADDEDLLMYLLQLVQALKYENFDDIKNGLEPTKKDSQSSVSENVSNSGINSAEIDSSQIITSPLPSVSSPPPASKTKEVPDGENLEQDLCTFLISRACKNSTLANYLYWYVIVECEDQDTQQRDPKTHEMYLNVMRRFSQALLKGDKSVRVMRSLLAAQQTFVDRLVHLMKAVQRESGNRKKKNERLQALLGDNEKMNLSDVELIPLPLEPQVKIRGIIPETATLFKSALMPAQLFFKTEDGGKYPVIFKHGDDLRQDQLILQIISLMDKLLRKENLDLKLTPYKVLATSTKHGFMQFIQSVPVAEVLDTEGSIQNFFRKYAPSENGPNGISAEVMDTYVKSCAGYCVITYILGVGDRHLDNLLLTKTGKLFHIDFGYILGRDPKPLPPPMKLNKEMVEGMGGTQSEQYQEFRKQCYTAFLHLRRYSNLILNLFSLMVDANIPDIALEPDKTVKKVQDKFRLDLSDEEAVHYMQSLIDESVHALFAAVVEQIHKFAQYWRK
UniProt Q8N4V1: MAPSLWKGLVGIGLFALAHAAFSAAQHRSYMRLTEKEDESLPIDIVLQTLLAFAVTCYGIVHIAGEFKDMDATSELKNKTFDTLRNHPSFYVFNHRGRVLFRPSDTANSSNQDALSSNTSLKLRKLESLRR
UniProt Q8NC96: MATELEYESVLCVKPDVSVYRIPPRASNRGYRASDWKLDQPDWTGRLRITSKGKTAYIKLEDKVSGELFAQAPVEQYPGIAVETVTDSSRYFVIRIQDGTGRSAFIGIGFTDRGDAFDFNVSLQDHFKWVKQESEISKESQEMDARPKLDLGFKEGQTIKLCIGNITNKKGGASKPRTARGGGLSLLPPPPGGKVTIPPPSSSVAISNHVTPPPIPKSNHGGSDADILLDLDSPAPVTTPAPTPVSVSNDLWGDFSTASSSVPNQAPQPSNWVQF
UniProt Q8N2F6: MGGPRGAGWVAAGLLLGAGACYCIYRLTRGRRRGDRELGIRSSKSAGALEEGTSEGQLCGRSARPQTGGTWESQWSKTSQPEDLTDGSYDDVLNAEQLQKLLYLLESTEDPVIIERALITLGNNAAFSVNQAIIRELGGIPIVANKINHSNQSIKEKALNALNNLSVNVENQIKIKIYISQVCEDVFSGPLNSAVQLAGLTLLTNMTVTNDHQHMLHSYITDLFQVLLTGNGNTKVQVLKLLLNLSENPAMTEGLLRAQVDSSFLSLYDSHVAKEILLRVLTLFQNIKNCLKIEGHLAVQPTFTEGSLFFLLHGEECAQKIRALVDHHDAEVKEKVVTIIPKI
UniProt Q8N9N5: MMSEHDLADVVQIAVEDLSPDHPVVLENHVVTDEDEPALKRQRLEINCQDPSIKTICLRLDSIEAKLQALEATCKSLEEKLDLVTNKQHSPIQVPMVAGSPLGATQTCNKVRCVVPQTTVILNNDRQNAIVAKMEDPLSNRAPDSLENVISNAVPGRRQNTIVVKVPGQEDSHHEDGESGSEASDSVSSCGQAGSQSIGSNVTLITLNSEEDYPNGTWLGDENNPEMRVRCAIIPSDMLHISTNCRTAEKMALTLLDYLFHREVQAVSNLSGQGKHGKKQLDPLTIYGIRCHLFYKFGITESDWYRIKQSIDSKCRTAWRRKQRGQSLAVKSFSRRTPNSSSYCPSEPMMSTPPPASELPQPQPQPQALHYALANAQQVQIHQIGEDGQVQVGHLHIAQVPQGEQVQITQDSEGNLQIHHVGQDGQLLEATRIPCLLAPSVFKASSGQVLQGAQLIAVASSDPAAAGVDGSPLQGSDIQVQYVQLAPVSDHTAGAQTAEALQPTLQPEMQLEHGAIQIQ
UniProt Q8N108: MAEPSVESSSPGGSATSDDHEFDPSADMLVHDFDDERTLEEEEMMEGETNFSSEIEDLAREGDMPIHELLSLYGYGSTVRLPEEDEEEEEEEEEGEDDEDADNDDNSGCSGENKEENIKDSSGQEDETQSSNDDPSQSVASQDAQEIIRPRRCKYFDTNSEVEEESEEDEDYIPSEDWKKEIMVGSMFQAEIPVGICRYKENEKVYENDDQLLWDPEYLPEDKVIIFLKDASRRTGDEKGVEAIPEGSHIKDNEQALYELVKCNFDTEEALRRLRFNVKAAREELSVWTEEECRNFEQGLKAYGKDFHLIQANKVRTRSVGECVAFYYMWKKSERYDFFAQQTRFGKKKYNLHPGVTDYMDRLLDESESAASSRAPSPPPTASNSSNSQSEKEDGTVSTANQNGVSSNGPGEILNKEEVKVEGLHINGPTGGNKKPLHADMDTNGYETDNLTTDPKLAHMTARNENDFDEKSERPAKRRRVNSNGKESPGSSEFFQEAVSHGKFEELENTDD
UniProt Q8N5W9: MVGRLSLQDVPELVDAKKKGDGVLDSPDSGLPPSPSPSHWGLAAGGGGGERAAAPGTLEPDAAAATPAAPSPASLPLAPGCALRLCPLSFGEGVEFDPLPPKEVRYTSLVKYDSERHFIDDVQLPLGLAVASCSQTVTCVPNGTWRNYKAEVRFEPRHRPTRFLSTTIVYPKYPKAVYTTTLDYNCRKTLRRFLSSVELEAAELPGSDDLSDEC
UniProt Q8N1F7: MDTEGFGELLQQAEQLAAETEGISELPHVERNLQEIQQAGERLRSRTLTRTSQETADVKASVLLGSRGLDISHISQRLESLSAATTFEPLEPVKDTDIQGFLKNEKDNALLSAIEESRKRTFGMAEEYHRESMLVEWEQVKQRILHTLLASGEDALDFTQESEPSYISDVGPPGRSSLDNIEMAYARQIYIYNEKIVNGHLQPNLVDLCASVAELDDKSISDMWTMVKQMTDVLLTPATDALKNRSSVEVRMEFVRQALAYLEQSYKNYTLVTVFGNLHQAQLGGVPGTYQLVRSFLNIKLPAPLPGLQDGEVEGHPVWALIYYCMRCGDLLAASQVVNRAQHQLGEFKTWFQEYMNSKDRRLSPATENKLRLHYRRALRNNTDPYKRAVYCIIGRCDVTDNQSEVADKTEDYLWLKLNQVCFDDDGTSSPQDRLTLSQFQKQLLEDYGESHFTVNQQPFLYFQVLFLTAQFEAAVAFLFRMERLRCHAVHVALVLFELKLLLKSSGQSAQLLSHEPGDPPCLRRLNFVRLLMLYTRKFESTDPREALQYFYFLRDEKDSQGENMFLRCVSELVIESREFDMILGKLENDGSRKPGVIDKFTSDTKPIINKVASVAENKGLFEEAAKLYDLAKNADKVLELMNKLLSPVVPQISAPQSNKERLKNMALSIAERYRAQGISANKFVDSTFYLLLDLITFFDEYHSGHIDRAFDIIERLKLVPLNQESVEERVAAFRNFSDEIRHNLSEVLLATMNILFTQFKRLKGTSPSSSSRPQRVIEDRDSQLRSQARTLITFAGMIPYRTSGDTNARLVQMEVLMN
UniProt Q8N122, whole entry: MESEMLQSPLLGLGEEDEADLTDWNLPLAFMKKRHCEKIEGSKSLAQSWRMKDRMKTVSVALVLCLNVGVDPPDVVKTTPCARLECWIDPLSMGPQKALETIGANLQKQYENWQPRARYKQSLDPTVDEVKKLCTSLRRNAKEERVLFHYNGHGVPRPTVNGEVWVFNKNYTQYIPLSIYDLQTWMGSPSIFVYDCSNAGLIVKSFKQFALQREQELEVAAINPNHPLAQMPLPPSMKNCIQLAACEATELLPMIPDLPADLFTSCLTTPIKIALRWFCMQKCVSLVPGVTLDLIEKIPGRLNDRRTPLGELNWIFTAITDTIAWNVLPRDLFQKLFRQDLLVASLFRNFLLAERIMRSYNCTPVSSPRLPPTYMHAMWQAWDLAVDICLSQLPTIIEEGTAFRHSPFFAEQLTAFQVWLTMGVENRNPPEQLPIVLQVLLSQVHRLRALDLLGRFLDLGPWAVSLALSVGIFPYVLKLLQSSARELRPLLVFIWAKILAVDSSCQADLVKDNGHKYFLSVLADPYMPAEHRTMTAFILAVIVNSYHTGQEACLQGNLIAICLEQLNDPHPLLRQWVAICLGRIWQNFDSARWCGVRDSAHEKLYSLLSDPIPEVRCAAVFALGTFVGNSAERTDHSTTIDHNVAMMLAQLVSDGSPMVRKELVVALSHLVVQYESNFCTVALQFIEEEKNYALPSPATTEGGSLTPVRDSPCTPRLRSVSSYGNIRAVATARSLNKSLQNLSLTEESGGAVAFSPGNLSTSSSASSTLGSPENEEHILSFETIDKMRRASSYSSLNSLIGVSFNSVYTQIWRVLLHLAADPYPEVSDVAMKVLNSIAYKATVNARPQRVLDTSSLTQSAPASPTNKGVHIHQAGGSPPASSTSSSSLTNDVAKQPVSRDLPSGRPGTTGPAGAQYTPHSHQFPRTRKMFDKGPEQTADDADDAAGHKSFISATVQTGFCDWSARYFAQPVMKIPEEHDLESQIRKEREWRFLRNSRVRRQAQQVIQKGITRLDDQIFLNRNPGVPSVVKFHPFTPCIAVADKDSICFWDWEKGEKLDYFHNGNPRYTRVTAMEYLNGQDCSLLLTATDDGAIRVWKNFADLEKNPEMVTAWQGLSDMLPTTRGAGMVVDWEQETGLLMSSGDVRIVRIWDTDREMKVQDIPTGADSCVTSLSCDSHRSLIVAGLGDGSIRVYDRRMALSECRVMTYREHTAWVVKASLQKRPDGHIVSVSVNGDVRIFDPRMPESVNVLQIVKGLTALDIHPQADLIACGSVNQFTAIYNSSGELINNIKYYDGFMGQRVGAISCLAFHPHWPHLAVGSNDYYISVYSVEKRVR

Target	NP40-soluble protein abundance (concentration: 1mM)	NP40-soluble protein abundance (concentration: 2mM)	NP40-soluble protein abundance (concentration: 4mM)	NP40-soluble protein abundance (concentration: 6mM)	NP40-soluble protein abundance (concentration: 8mM)	NP40-soluble protein abundance (concentration: 10mM)
GADD45GIP1 (UniProt Q8TAE8)	1.05 ± 0.13	0.894 ± 0.064	0.923 ± 0.14	0.908 ± 0.19	0.938 ± 0.12	0.813 ± 0.21
LRRC57 (UniProt Q8N9N7)	0.976 ± 0.015	1.01 ± 0.034	0.991 ± 0.051	0.971 ± 0.029	0.993 ± 0.031	0.986 ± 0.052
LIX1L (UniProt Q8IVB5)	0.936 ± 0.025	0.968 ± 0.027	0.97 ± 0.019	0.972 ± 0.034	0.935 ± 0.059	0.93 ± 0.061
CNPY4 (UniProt Q8N129)	0.898 ± 0.25	0.823 ± 0.33	0.856 ± 0.26	0.89 ± 0.31	0.786 ± 0.28	0.782 ± 0.18
UniProt Q8TB72 and related entries	0.864 ± 0.02	0.909 ± 0.014	0.882 ± 0.027	0.9161 ± 0.0047	0.855 ± 0.0097	0.898 ± 0.026
SRFBP1 (UniProt Q8NEF9)	1.04 ± 0.053	1.03 ± 0.036	1.05 ± 0.048	1.08 ± 0.049	1.05 ± 0.012	1.06 ± 0.048
C1orf174 (UniProt Q8IYL3)	1.07 ± 0.097	1.21 ± 0.077	1.27 ± 0.17	1.32 ± 0.19	1.22 ± 0.053	1.23 ± 0.063
UniProt Q8NEB9	1.02 ± 0.072	1.03 ± 0.067	1.02 ± 0.1	0.98 ± 0.073	1.03 ± 0.04	1.01 ± 0.036
UniProt Q8IX90	0.94 ± 0.038	0.967 ± 0.046	0.969 ± 0.023	0.999 ± 0.05	0.961 ± 0.024	0.957 ± 0.032
RNF214 (UniProt Q8ND24)	0.952 ± 0.036	0.952 ± 0.015	0.953 ± 0.011	0.97 ± 0.017	0.931 ± 0.01	0.926 ± 0.02
UniProt Q8N4V1 and related entries	0.917 ± 0.16	0.851 ± 0.17	0.847 ± 0.2	0.856 ± 0.2	0.869 ± 0.19	0.738 ± 0.15
AVL9 (UniProt Q8NBF6)	1 ± 0.053	1 ± 0.025	0.979 ± 0.013	0.943 ± 0.06	0.9791 ± 0.0038	1 ± 0.035
UniProt Q8NCE2-2|Q8NCE2 and related entries	0.995 ± 0.028	1.01 ± 0.041	0.995 ± 0.011	0.982 ± 0.095	0.97 ± 0.024	0.985 ± 0.039
DHX40 (UniProt Q8IX18)	1.04 ± 0.053	1.06 ± 0.018	1.06 ± 0.012	1.03 ± 0.033	1.044 ± 0.0053	1.02 ± 0.025
UniProt Q8IVT5 and related entries	1.02 ± 0.12	1.08 ± 0.04	1.13 ± 0.059	1.13 ± 0.1	1.11 ± 0.028	1.08 ± 0.054
NECAP1 (UniProt Q8NC96)	0.997 ± 0.023	0.946 ± 0.072	1 ± 0.024	0.974 ± 0.044	1.01 ± 0.076	0.905 ± 0.047
UniProt Q8N2F6 and related entries	0.979 ± 0.03	0.994 ± 0.034	0.953 ± 0.066	1.03 ± 0.038	0.977 ± 0.059	0.942 ± 0.037
UniProt Q8N4C8 and related entries	0.956 ± 0.067	0.97 ± 0.085	0.996 ± 0.081	1.04 ± 0.097	0.978 ± 0.072	0.983 ± 0.086
UniProt Q8N9N5 and related entries	1.01 ± 0.084	1.01 ± 0.024	1 ± 0.035	0.989 ± 0.054	0.949 ± 0.03	1 ± 0.011
TRIM22 (UniProt Q8IYM9)	0.977 ± 0.074	0.995 ± 0.031	1.01 ± 0.099	1.05 ± 0.026	1.04 ± 0.021	0.964 ± 0.069
UniProt Q8N5A5-2|Q8N5A5 and related entries	1.08 ± 0.11	1.05 ± 0.088	1.08 ± 0.081	1.14 ± 0.13	1.1 ± 0.1	1.15 ± 0.096
UniProt Q8N108 and related entries	0.937 ± 0.063	0.988 ± 0.037	0.948 ± 0.021	0.999 ± 0.035	0.95 ± 0.022	0.965 ± 0.043
ANKRD52 (UniProt Q8NB46)	1.04 ± 0.11	0.963 ± 0.079	1.02 ± 0.032	0.948 ± 0.049	1.02 ± 0.1	1 ± 0.074
RFLNB (UniProt Q8N5W9)	0.954 ± 0.099	0.969 ± 0.076	0.991 ± 0.15	0.948 ± 0.098	0.985 ± 0.11	0.966 ± 0.033
NUP93 (UniProt Q8N1F7)	1 ± 0.059	0.992 ± 0.051	0.994 ± 0.03	0.991 ± 0.064	1.02 ± 0.034	1.05 ± 0.033
LRRC47 (UniProt Q8N1G4)	1 ± 0.0066	1.02 ± 0.034	1.03 ± 0.03	1.06 ± 0.035	1.04 ± 0.043	1.05 ± 0.053
UniProt Q8IYU2 and related entries	1 ± 0.023	0.996 ± 0.066	0.977 ± 0.01	0.964 ± 0.16	0.912 ± 0.062	1.08 ± 0.13
UniProt Q8NE86 and related entries	1.06 ± 0.084	1.09 ± 0.12	1.05 ± 0.094	0.99 ± 0.085	1.06 ± 0.049	1.04 ± 0.083
UniProt Q8NB15-2	0.9972 ± 0.0052	1.08 ± 0.067	1.09 ± 0.021	1.06 ± 0.1	1.06 ± 0.067	1.04 ± 0.055
UniProt Q8N122 and related entries	1 ± 0.035	1 ± 0.071	1.03 ± 0.027	0.987 ± 0.049	1.01 ± 0.021	0.994 ± 0.01

Part of the list above, set out differently.
LRRC57 (UniProt Q8N9N7)
  NP40-soluble protein abundance (concentration: 1mM): 0.976 ± 0.015; NP40-soluble protein abundance (concentration: 2mM): 1.01 ± 0.034; NP40-soluble protein abundance (concentration: 4mM): 0.991 ± 0.051; NP40-soluble protein abundance (concentration: 6mM): 0.971 ± 0.029; NP40-soluble protein abundance (concentration: 8mM): 0.993 ± 0.031; NP40-soluble protein abundance (concentration: 10mM): 0.986 ± 0.052
LIX1L (UniProt Q8IVB5)
  NP40-soluble protein abundance (concentration: 1mM): 0.936 ± 0.025; NP40-soluble protein abundance (concentration: 2mM): 0.968 ± 0.027; NP40-soluble protein abundance (concentration: 4mM): 0.97 ± 0.019; NP40-soluble protein abundance (concentration: 6mM): 0.972 ± 0.034; NP40-soluble protein abundance (concentration: 8mM): 0.935 ± 0.059; NP40-soluble protein abundance (concentration: 10mM): 0.93 ± 0.061
